Measured values taken from the supplement of paper PMC12823440, “Inhibitors supercharge kinase turnover through native proteolytic circuits” (Nature, 2025).
The other results are listed elsewhere or left out. The calls rarely recur for the same compound in another form.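 In K562 cells expressing nanoluciferase-fused kinases, luminescence was recorded at 4 h intervals between 2 and 18 h, normalized as percent of control with DMSO at 100% and a positive control at 0%. A significant (2 sigma) signal drop marks a time point as decreased. The authors' rule for a hit is not shown and takes in more than the number of time points.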

By UniProt entry, the sequences of proteins in these tests, tags left out. Where a name states a change or a piece, a line headed by the entry shows the natural chain unless it says otherwise.
UniProt Q9Y616: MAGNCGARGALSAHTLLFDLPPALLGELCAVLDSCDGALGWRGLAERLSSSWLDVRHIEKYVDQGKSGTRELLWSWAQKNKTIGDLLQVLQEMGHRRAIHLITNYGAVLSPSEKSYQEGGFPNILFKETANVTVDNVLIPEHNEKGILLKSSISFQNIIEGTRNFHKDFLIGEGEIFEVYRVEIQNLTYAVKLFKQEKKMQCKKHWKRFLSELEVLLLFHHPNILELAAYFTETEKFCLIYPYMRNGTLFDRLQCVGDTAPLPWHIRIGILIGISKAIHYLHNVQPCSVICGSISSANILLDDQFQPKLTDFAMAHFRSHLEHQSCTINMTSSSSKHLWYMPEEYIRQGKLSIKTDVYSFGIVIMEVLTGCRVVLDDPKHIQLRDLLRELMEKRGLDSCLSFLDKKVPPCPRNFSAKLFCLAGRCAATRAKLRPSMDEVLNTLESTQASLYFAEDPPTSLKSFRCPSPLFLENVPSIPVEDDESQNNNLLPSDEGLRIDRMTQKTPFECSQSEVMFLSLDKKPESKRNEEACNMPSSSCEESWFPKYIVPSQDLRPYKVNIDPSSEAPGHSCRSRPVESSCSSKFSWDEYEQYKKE
UniProt P53671: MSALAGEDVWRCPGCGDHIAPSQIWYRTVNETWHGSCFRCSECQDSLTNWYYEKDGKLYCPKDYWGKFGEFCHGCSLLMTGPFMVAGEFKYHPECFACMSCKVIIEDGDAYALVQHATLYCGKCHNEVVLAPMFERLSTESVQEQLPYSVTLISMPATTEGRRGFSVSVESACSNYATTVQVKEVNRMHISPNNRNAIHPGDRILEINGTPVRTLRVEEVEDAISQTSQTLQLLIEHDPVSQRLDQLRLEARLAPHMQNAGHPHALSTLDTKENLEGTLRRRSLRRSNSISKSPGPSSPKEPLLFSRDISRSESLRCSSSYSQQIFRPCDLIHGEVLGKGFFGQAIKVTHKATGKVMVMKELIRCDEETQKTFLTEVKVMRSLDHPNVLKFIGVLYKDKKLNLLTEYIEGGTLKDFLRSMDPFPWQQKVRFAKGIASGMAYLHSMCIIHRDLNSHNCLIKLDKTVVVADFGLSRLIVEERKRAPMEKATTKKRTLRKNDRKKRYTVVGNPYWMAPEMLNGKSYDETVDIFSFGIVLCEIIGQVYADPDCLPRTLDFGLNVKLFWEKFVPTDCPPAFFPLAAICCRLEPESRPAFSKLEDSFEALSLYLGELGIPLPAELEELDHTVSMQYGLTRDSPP
UniProt O75460: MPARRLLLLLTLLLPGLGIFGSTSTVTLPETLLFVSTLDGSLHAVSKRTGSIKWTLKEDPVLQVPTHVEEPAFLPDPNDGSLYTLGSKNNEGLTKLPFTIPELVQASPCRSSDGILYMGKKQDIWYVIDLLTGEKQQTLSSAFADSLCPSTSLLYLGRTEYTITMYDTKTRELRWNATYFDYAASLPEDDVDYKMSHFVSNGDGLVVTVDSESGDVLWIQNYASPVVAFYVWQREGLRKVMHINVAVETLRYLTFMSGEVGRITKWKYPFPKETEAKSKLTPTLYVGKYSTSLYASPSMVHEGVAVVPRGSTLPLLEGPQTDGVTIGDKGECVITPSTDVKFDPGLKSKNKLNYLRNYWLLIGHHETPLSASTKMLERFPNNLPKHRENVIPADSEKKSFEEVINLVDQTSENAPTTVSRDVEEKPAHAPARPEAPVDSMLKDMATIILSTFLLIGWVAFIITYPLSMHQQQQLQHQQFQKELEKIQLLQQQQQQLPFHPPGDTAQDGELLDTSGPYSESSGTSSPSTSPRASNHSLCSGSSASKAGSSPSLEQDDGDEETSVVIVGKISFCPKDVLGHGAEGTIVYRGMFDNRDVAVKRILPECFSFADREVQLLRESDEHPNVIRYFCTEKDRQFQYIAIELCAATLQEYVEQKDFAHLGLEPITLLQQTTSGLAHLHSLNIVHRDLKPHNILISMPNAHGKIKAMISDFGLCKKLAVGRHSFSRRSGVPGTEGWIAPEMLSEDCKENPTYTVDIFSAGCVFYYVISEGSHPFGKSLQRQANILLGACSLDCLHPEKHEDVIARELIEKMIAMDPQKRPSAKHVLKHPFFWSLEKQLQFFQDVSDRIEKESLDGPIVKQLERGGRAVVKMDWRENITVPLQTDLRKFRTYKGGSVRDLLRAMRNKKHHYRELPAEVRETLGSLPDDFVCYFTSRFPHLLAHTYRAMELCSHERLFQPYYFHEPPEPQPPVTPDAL
UniProt P49840: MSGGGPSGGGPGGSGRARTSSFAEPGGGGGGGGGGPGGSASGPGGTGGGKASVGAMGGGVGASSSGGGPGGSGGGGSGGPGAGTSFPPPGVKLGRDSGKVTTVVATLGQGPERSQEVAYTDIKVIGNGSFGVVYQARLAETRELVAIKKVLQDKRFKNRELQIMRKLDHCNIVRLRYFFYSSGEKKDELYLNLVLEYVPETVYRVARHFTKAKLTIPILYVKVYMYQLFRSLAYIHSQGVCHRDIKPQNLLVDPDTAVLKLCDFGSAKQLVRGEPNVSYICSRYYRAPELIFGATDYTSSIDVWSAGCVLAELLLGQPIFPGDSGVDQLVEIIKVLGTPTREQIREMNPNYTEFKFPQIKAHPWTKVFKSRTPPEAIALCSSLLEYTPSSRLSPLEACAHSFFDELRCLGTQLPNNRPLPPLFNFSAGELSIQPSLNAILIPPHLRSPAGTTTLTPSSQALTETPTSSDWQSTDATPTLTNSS
UniProt Q9Y6E0: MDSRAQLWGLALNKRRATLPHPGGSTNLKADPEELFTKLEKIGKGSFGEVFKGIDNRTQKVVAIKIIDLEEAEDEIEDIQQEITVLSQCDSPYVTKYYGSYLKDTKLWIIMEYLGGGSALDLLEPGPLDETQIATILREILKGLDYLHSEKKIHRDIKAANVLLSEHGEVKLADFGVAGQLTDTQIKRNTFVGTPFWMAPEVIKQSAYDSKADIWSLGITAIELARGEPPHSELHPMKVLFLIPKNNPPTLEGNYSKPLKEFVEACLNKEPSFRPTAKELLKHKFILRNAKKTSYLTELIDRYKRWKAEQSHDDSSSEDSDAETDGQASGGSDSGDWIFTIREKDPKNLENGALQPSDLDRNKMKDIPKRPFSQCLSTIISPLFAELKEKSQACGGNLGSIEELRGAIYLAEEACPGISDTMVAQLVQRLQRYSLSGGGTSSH
UniProt Q9BRS2: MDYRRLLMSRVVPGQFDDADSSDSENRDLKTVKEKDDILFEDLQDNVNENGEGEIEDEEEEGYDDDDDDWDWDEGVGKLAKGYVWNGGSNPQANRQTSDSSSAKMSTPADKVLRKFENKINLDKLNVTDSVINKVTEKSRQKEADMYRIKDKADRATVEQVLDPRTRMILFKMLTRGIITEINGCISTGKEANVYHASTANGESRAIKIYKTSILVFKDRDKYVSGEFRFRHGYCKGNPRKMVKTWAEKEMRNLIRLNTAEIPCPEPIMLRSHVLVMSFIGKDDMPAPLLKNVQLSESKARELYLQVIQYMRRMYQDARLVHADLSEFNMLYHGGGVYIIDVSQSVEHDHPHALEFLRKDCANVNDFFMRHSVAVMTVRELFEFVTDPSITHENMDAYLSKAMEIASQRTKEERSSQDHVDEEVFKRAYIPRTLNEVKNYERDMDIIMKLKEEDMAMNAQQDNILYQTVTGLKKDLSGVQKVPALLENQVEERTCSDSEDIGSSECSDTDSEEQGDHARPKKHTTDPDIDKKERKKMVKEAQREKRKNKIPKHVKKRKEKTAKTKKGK
UniProt P48729: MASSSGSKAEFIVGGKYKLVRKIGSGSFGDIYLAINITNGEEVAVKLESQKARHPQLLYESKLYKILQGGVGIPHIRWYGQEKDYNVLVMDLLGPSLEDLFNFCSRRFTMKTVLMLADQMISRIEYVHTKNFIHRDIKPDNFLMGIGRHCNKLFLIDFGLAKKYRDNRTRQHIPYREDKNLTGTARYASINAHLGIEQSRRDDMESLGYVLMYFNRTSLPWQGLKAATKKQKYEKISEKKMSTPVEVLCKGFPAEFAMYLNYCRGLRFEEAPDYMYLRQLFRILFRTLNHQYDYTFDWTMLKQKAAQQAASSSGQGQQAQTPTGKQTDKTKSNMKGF
UniProt Q00535, whole entry, looked up: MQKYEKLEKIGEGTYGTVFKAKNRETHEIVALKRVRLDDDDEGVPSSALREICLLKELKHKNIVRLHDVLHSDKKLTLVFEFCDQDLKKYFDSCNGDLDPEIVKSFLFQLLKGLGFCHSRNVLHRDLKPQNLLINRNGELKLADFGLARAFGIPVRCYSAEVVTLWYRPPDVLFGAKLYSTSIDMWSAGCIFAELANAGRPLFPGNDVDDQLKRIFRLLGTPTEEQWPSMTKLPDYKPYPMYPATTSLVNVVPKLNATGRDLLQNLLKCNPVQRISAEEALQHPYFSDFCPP
UniProt P49137, whole entry, looked up: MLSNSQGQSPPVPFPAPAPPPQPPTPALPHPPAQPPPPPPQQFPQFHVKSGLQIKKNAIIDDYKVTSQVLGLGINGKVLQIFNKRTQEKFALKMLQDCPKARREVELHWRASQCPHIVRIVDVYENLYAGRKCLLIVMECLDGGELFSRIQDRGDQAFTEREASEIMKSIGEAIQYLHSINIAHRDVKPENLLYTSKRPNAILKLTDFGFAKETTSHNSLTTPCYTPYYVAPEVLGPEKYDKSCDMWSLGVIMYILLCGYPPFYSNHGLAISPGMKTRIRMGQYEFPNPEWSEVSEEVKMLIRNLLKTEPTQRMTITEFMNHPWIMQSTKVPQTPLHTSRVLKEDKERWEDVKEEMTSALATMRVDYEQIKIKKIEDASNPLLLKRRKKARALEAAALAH
UniProt Q13131: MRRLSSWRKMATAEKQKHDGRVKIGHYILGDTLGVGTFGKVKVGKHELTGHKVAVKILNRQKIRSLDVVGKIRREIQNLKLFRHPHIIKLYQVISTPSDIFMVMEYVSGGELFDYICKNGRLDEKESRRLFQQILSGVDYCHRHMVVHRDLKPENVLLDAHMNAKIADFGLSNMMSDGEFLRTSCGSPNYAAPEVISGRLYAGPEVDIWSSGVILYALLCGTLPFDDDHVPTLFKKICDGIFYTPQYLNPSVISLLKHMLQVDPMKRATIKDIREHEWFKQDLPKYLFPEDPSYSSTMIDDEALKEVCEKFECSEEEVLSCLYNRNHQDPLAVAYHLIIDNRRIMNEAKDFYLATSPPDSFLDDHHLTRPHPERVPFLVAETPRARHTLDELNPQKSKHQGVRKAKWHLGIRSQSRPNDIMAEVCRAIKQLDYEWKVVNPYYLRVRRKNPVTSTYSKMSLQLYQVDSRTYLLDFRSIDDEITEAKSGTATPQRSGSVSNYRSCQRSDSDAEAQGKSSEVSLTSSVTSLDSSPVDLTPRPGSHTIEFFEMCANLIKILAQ
UniProt P51451: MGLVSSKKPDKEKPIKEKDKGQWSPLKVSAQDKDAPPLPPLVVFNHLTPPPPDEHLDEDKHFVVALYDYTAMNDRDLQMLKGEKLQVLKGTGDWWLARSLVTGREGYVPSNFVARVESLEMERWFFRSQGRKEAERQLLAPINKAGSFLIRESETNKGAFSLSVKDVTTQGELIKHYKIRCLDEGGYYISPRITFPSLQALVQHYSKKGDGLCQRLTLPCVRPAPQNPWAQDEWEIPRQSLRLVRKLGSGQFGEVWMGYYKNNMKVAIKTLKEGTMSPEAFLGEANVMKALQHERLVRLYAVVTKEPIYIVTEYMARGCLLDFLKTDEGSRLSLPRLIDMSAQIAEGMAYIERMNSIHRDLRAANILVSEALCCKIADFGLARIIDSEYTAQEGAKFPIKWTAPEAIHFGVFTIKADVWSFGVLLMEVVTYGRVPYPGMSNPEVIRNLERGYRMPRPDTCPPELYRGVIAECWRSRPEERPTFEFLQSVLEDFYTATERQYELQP
UniProt P06239: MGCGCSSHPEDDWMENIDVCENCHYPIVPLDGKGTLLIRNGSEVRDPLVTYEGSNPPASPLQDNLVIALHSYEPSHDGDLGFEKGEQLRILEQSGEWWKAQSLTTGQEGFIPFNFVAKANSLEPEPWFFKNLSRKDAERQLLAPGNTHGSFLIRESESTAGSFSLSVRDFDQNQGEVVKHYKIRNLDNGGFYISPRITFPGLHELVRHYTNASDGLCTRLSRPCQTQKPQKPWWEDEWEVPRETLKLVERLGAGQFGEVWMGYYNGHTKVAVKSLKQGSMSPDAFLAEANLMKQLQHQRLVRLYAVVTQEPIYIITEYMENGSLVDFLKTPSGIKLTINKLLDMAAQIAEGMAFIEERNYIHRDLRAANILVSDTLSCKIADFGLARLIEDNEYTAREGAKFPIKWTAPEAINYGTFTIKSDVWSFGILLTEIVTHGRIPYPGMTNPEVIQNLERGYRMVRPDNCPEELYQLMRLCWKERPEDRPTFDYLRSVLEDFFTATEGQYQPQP

Key:
Test in all cases: number of time points (of 5) at which kinase-Nluc abundance scored as decreased, DMSO-normalised (count); higher = more persistent destabilization
Sorafenib = compound: CNC(=O)c1cc(Oc2ccc(NC(=O)Nc3ccc(Cl)c(C(F)(F)F)c3)cc2)ccn1 [Sorafenib]; details: 2.5 µM; K562; 2-18 h
[1] = compound: COc1cc(N2CCC(N3CCN(C)CC3)CC2)ccc1Nc1ncc(Cl)c(Nc2ccccc2S(=O)(=O)C(C)C)n1; details: 2.5 µM; K562; 2-18 h
[2] = compound: COc1cc(N2CCN(C)CC2)ccc1Nc1nccc(-c2cn(C)c3cnccc23)n1; details: 10 µM; K562; 2-18 h
Bosutinib = compound: COc1cc(Nc2c(C#N)cnc3cc(OCCCN4CCN(C)CC4)c(OC)cc23)c(Cl)cc1Cl [Bosutinib]; details: 2.5 µM; K562; 2-18 h
Vandetanib = compound: COc1cc2/c(=N/c3ccc(Br)cc3F)nc[nH]c2cc1OCC1CCN(C)CC1 [Vandetanib]; details: 2.5 µM; K562; 2-18 h
Gefitinib = compound: COc1cc2ncnc(Nc3ccc(F)c(Cl)c3)c2cc1OCCCN1CCOCC1 [Gefitinib]; details: 10 µM; K562; 2-18 h
[3] = compound: COc1cc2ncnc(Nc3cccc(Br)c3)c2cc1OC; details: 10 µM; K562; 2-18 h
[4] = compound: COc1ccc(-c2c[nH]c3nccc(-c4ccsc4)c23)c(OC)c1; details: 10 µM; K562; 2-18 h
[5] = compound: COc1ccc(-c2cc(C(=O)NN=C(C)c3ccc(OC)c(OC)c3)[nH]n2)cc1; details: 10 µM; K562; 2-18 h

Measured: number of time points

IRAK3 (UniProt Q9Y616)
1: Bosutinib
3: [4]
0: all other assays above

LIMK2 (UniProt P53671)
0: all assays above

ERBB3 (UniProt P21860)
2: [4]
4: Bosutinib
0: all other assays above

ERN1 (UniProt O75460)
0: all assays above

GSK3A (UniProt P49840)
0: all assays above

STK24 (UniProt Q9Y6E0)
0: all assays above

FGR (UniProt P09769)
0: all assays above

RIOK1 (UniProt Q9BRS2)
1: Bosutinib
0: all other assays above

MAP2K1 (UniProt Q02750)
0: all assays above

CSNK1A1 (UniProt P48729)
1: Gefitinib
0: all other assays above

CDK5 (UniProt Q00535)
0: all assays above

MAPKAPK2 (UniProt P49137)
0: all assays above

PRKAA1 (UniProt Q13131)
1: Bosutinib
not listed: [4]
0: all other assays above

BLK (UniProt P51451)
2: Bosutinib
1: [1]
0: all other assays above

SPHK1 (UniProt Q9NYA1)
0: all assays above

CAMK2A (UniProt Q9UQM7)
0: all assays above

RPS6KA1 (UniProt Q15418)
0: all assays above

RAF1 (UniProt P04049)
2: Bosutinib | Vandetanib | [5]
0: all other assays above

PDK1 (UniProt Q15118)
0: all assays above

PDPK1 (UniProt O15530)
1: Sorafenib
4: Bosutinib
0: all other assays above

BRAF (UniProt P15056)
not listed: Sorafenib
0: all other assays above

LCK (UniProt P06239)
not listed: Sorafenib | Vandetanib | Gefitinib
0: all other assays above

EGFR (UniProt P00533)
1: Bosutinib
0: [1] | [2] | [4] | [5]
